According to the M2OR odorant receptor database:
The entries are a selection whose mix differs from that of the whole data set. Calls are pooled over several reports, among them a noisy single-well screen. Some of the results follow.

Legend:
Details in all cases: stereoisomer not certain
OR10C1 (Homo sapiens) = biological target: T1, OR10C1 (Homo sapiens) (UniProt Q96KK4)
T1 sequence (whole entry): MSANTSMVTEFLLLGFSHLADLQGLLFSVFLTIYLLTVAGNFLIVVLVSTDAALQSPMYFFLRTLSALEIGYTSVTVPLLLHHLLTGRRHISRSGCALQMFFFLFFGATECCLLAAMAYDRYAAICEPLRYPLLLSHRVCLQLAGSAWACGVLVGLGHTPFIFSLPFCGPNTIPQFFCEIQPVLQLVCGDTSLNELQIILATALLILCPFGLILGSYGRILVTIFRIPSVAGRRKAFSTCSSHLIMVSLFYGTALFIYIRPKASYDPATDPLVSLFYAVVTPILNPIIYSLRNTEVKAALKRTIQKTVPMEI
How it was run: (§1)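 Transient luciferase assays in mammalian cell lines were common, though methods varied by source. The values come from published papers and their supplementary material, with extra details from the original authors when needed. Responsive refers to a measured signal the original authors judged statistically different from baseline, and non-responsive (inactive) to the remainder.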

OR10G6 (Homo sapiens) = biological target: T2, OR10G6 (Homo sapiens) (UniProt Q8NH81)
T2 sequence (whole entry): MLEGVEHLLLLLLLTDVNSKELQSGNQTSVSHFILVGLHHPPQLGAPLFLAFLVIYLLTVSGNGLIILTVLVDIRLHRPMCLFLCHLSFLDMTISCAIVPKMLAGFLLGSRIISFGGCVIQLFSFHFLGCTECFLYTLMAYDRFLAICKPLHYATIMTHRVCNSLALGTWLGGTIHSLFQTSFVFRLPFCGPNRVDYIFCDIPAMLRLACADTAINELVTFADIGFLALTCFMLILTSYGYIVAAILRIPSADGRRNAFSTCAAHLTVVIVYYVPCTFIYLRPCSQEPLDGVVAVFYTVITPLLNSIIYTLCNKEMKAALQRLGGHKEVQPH
How it was run: as §1

OR10G7 (Homo sapiens) = biological target: T3, OR10G7 (Homo sapiens) (UniProt Q8NGN6)
T3 sequence (whole entry): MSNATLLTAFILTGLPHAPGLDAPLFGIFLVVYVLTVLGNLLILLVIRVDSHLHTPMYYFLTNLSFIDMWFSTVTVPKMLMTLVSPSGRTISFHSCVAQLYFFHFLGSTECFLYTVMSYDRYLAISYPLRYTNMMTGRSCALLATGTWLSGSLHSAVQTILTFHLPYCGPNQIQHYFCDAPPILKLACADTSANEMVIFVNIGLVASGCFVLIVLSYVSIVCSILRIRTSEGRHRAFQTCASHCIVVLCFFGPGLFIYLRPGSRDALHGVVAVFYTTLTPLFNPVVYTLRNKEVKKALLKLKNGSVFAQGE
How it was run: as §1

OR10G8 (Homo sapiens) = biological target: T4, OR10G8 (Homo sapiens) (UniProt Q8NGN5)
T4 sequence (whole entry): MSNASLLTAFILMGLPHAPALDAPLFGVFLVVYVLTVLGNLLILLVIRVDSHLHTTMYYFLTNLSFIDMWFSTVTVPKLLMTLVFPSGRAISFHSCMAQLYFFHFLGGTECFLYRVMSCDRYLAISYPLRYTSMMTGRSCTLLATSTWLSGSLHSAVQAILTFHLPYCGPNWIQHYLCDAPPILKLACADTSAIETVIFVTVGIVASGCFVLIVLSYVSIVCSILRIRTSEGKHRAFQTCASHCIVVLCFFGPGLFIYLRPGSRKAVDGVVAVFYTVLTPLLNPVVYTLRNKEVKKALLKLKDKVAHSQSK
How it was run: as §1

OR10H1 (Homo sapiens) = biological target: T5, OR10H1 (Homo sapiens) (UniProt Q9Y4A9)
T5 sequence (whole entry): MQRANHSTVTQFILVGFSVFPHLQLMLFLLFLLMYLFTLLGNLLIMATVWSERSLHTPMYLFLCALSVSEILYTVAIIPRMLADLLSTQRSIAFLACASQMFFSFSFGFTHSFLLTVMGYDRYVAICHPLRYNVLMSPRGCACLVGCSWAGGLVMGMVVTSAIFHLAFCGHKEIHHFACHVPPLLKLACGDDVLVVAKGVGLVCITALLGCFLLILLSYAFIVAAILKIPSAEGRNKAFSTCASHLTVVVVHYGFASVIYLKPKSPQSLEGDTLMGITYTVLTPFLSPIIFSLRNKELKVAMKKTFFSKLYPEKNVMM
How it was run: as §1

OR10H3 (Homo sapiens) = biological target: T6, OR10H3 (Homo sapiens) (UniProt O60404)
T6 sequence (whole entry): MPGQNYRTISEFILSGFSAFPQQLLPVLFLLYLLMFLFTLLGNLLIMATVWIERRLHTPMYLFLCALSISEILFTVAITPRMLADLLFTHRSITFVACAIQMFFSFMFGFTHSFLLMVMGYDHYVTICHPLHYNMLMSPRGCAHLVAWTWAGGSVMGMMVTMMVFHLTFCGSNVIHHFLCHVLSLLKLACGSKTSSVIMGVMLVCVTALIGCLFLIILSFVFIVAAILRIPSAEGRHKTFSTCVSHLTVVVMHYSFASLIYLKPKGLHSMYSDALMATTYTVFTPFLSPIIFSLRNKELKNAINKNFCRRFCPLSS
How it was run: as §1

OR10H4 (Homo sapiens) = biological target: T7, OR10H4 (Homo sapiens) (UniProt Q8NGA5)
T7 sequence (whole entry): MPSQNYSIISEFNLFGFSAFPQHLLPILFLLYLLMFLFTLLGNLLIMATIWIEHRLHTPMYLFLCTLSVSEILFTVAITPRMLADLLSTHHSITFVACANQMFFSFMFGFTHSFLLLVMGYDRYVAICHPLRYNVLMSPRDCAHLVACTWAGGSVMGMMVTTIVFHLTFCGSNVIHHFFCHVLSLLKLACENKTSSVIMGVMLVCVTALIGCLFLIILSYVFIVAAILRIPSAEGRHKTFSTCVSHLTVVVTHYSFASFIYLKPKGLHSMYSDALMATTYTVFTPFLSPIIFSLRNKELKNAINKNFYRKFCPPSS
How it was run: as §1

OR10J5 (Homo sapiens) = biological target: T8, OR10J5 (Homo sapiens) (UniProt Q8NHC4)
T8 sequence (whole entry): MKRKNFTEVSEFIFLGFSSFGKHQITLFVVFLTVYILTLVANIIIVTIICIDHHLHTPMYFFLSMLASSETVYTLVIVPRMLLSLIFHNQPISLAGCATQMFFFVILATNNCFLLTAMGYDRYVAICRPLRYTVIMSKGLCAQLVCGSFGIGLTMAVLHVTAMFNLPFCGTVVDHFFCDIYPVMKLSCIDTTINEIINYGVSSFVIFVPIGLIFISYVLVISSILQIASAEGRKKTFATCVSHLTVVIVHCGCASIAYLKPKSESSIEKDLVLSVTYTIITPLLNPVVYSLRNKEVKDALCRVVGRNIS
How it was run: as §1

OR10K1 (Homo sapiens) = biological target: T9, OR10K1 (Homo sapiens) (UniProt Q8NGX5)
T9 sequence (whole entry): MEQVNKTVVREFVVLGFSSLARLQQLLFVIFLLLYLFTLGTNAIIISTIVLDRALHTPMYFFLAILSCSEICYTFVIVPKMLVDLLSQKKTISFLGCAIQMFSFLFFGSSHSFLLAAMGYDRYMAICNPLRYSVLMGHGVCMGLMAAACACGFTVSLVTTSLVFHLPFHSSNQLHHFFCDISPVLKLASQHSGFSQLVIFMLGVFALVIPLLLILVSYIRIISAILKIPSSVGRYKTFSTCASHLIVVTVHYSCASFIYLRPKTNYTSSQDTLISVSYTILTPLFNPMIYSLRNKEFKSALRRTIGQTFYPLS
How it was run: as §1

OR10K2 (Homo sapiens) = biological target: T10, OR10K2 (Homo sapiens) (UniProt Q6IF99)
T10 sequence (whole entry): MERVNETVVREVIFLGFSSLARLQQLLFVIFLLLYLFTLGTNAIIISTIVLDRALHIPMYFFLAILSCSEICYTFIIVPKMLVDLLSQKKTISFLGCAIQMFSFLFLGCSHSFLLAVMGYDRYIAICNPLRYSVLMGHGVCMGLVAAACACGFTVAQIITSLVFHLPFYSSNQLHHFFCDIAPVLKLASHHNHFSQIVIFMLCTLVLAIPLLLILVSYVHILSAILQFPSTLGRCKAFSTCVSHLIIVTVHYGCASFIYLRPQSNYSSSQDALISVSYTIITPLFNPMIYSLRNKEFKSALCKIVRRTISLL
How it was run: as §1

Measured: odorant receptor agonist call

CCCCOC(C)=O
inactive: all assays above
